Measured values as given in PubChem BioAssay AID588590 (National Center for Advancing Translational Sciences (NCATS), 2011).
In all, about 390,000 compounds went through this assay and about 4,000 (1%) were called active. Inconclusive results, whose numbers are uncertain, are shown with a selection of clear calls. Calls follow the shape of the dose curve; as a rule, active = well fitted inhibition curve with a large enough effect; inconclusive = small, poorly fitted or top-dose-only effect, or another doubt; inactive = no such curve, though single readings can be large or run the other way. Potencies of inconclusive entries are doubtful fits and often do not repeat.

The chains behind the UniProt entries cited, without tags or fusion partners. Where a name states a change or a piece, a line headed by the entry shows the natural chain unless it says otherwise.
UniProt Q9UNA4: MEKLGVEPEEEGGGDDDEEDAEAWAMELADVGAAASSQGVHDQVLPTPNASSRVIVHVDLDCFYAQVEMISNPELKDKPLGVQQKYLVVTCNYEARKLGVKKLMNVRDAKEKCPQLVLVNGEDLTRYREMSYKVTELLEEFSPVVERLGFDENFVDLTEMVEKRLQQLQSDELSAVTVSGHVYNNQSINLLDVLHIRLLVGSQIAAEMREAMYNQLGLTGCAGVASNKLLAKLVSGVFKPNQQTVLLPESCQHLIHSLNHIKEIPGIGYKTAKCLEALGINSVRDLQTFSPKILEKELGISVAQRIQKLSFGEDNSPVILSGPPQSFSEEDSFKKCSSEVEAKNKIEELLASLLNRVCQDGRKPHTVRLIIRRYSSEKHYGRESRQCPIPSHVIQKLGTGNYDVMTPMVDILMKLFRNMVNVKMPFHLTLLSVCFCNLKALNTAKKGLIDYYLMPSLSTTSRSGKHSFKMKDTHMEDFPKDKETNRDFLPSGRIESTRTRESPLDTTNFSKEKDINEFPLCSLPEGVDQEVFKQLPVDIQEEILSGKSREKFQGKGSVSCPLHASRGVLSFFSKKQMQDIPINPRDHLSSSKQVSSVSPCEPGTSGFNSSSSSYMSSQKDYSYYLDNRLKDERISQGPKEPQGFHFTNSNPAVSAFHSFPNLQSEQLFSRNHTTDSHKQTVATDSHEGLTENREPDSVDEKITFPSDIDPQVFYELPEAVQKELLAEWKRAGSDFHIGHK

molecular target: DNA polymerase iota (Homo sapiens) (UniProt Q9UNA4); assay: qHTS for Inhibitors of Polymerase Iota; conditions: Pol iota fluorescent replication assay, 10 min; series mostly up to 115 µM
Outline: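 Fluorescent replication assay read twice, at 0 min and 10 min after adding 50 nM (final) substrate. Enzyme (10 nM) and compounds were first incubated 15 min at room temperature; enzyme-free buffer wells were negative controls.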
Potency is read from the fitted curve at half-maximal effect.

SMILES | Potency
COc1ccc(NS(=O)(=O)c2cc(NC(=O)c3cccnc3Cl)ccc2N2CCCC2)cc1 | inconclusive: 10 µM [inhibitor, full curve]
O=C(CSc1nc(-c2ccccc2)cs1)N1CCc2ccccc21 | inactive
Cc1cccc(N(C(=O)CCC(=O)Nc2cc(C)on2)C(C(=O)NC2CCCC2)c2ccc(C)o2)c1 (centres undefined) | inconclusive: 10 µM [inhibitor, partial curve]
CC(/C=C\c1ccccc1)=C/C(=O)O | inactive
O=C(O)c1ccccc1CC(CCc1ccccc1)C(=O)O (centres undefined) | inconclusive: 14.1 µM [inhibitor, partial curve, poor fit]
Oc1ccc(C[C@H]2CNCCN2CCc2cccc(F)c2)cc1 | inconclusive: 14.1 µM [inhibitor, full curve]
CN(C)c1ccc(CN2CCCCCC2)cc1 | inconclusive: 35.5 µM [inhibitor, single point]
CC[n+]1c(/C=C/Nc2ccccc2)oc2ccccc21 | inconclusive: 39.8 µM [inhibitor, single point]
COc1ccc(NC(=O)CCCCCn2nnc3ccccc3c2=O)cc1 | inconclusive: 89.1 µM [inhibitor, single point]
OCCCn1c(CCNc2nc(-c3ccc(F)cc3)cs2)nc2cc(C(F)(F)F)ccc21 | inactive
Cc1ccc(N=C2NC(=O)CC(C(=O)Nc3cc(C(F)(F)F)ccc3Cl)S2)cc1 (centres undefined) | inactive
COc1ccc(C2c3ccc(O)cc3Oc3ncn(Cc4ccco4)c(=N)c32)cc1OC (centres undefined) | inconclusive: 56.2 µM [inhibitor, single point]
COc1ccc2nc(SC)c(C#N)cc2c1 | active: 89.1 µM
CN(C(=O)COC(=O)c1n[nH]c(=O)c2ccccc12)c1ccccc1 | inactive
O=C1Nc2cc(Cl)ccc2Nc2cscc21 | inconclusive: 15.8 µM [inhibitor, full curve, poor fit]
NC(CCC(=O)NCS(=O)(=O)O)C(=O)O (centres undefined) | inconclusive: 56.2 µM [inhibitor, partial curve, poor fit]
COc1ccc(S(=O)(=O)NCC2CCCO2)cc1NC(=O)c1ccccc1F (centres undefined) | inactive
CCOc1cc(-c2ccc(OC(=O)c3ccc(OC)cc3)c(OC)c2)cc(=O)c2c(C)oc(C)c12 | inconclusive: 56.2 µM [inhibitor, partial curve, poor fit]
CCC(=O)Nc1cccc(C(=O)/C=C/c2cccs2)c1 | inconclusive: 28.2 µM [inhibitor, partial curve, poor fit]
COCCN1C(=O)CS/C1=C(/C#N)C(=O)NCc1ccco1 | inconclusive: 15.8 µM [inhibitor, full curve, poor fit]
COc1cccc(Oc2cnc(N)nc2-c2ccc(OC)cc2O)c1 | inconclusive: 141 µM [inhibitor, single point]
Nc1ccc(/C=C/c2ccnc3ccccc23)cc1 | inactive
O=C(OCC(=O)N1CCCCC1)c1cc2ccccc2cc1O | inactive

SMILES | Potency
Cc1cnc(C(=O)Oc2ccc(-c3ccccc3)cc2)cn1 | inconclusive: 25.1 µM [inhibitor, partial curve, poor fit]
N[C@@H](C(=O)O)c1ccc(O)c(C(=O)O)c1 | inconclusive: 89.1 µM [inhibitor, single point]
COc1ccc(-c2nn(-c3ccccc3)cc2C2NC(=O)NC(C)=C2C(=O)OC(C)C)cc1Cl (centres undefined) | inconclusive: 79.4 µM [inhibitor, partial curve, poor fit]
O=C(c1ccco1)N(CCCN1CCOCC1)c1nc(-c2ccc(Cl)cc2)cs1 | inconclusive: 79.4 µM [inhibitor, partial curve]
CCOC(=O)c1c(C)[nH]c(N=Nc2ccccc2Cl)c1C | inactive
CCc1nnc2c(Nc3ccc(N(CC)CC)cc3C)nc3ccccc3n12 | inactive
COC(=O)CC1COc2ccccc2N1C(=O)c1cc(OC)c(OC)c(OC)c1 (centres undefined) | inconclusive: 63.1 µM [inhibitor, single point]
Fc1ccc(-c2csc(=S)[nH]2)cc1 | inactive
O=C(O)c1cccc(NC2=C(Cl)C(=O)c3ccccc3C2=O)c1 | inconclusive: 35.5 µM [inhibitor, full curve, poor fit]
COC(=O)c1ccccc1NC(=O)c1cc2nc(C3CC3)cc(C(F)(F)F)n2n1 | inconclusive: 17.8 µM [inhibitor, full curve, poor fit]
CCOC(=O)CC(=O)CSc1nc(C)cc(-c2cccnc2)c1C#N | inconclusive: 79.4 µM [inhibitor, full curve, poor fit]
C/C=C\C=C\C(=O)Nc1cccc(C2=NOC3(C2)C[C@@H](C(N)=O)N(C(=O)C(c2ccccc2)c2ccccc2)C3)c1 (some centres undefined) | inconclusive: 39.8 µM [inhibitor, single point]
NC(=S)N=Nc1c(O)n(CC(=O)Nc2ccccc2)c2ccccc12 | inconclusive: 56.2 µM [inhibitor, partial curve, poor fit]
COc1ccc(-c2ccc(CCC(=O)O)n2-c2ccccc2O)cc1 | inconclusive: 5.01 µM [inhibitor, full curve, poor fit]
COc1ccc(C(=O)NC(C(=O)OCC(=O)Nc2sccc2C(N)=O)C(C)C)cc1 (centres undefined) | inconclusive: 39.8 µM [inhibitor, partial curve, poor fit]
O=C(c1cc(-c2cccnc2)nc2ccc(Cl)cc12)N1CCN(S(=O)(=O)c2cccs2)CC1 | inconclusive: 35.5 µM [inhibitor, partial curve]
COc1ccc(CNC(=O)CN2C(=O)CCn3nc(-c4ccccc4)cc32)c(OC)c1 | inactive
COC(=O)CCC(C(=O)CN1C(=O)c2ccccc2C1=O)N1C(=O)c2ccccc2C1=O (centres undefined) | inactive
Cc1cccc(NC(=O)CC2CCC2)c1 | inconclusive: 79.4 µM [inhibitor, partial curve, poor fit]
O=C(NN1C(=O)/C(=C/c2cccc(O)c2)SC1=S)c1ccccc1O | inconclusive: 11.2 µM [inhibitor, full curve, poor fit]
Cc1cc(N2C(=O)C(O)=C(C(=O)c3cc4ccccc4o3)C2c2ccc(Br)cc2)no1 (centres undefined) | inactive
NC(=O)c1cc2ccc(O)cc2oc1=Nc1ccccc1 | inactive
C=CCNC(=O)NC(=O)COC(=O)/C=C/c1cccc([N+](=O)[O-])c1 | inactive

SMILES | Potency
COc1ccc(C2=NOC(C(=O)NCc3ccco3)C2)cc1 (centres undefined) | inactive
CC1(C)C(=O)Nc2ccccc2N1C(=O)COC(=O)CNS(=O)(=O)c1ccc(Br)cc1Cl | inconclusive: 25.1 µM [inhibitor, single point]
COc1cccc(OCc2nc3ncc(Br)cc3[nH]2)c1 | inconclusive: 100 µM [inhibitor, partial curve, poor fit]
Oc1ccc(-c2sc(Nc3ccccc3)n[n+]2-c2ccc(F)cc2)cc1 | inconclusive: 20 µM [inhibitor, partial curve, poor fit]
COc1ccc(CNC(=O)C(=O)NCC(c2ccco2)N2CCOCC2)cc1 (centres undefined) | inconclusive: 100 µM [inhibitor, single point]
CCC(SC1=NCCS1)C(=O)Nc1nnc(-c2ccccc2OC)s1 (centres undefined) | inconclusive: 89.1 µM [inhibitor, single point]
C=CCn1c(=O)/c(=C/c2ccc(Cl)cc2)s/c1=C(/C#N)c1nnc2n1CCCCC2 | inconclusive: 63.1 µM [inhibitor, partial curve, poor fit]
O=C(COC(=O)c1ccc(O)cc1O)NC1CCCCCC1 | inconclusive: 8.91 µM [inhibitor, partial curve, poor fit]
CCOC(=O)[C@H]1[C@H]2COc3ccccc3[C@@H]2N2C(=O)CN(CC3CCCO3)C(=O)[C@@]12C (some centres undefined) | inconclusive: 89.1 µM [inhibitor, single point]
Cc1noc(C)c1N=Nc1ccc(Br)cc1C(=O)O | inactive
O=C1CSC(=S)N1N=Cc1ccccc1O | inconclusive: 22.4 µM [inhibitor, full curve, poor fit]
CSc1ncccc1C(=O)OCc1ccc(C#N)cc1 | inconclusive: 35.5 µM [inhibitor, single point]
O=C(NCC1CCCCC1)c1cc(S(=O)(=O)N2CCOCC2)ccc1F | inconclusive: 89.1 µM [inhibitor, partial curve, poor fit]
CCOc1ccc(C(=O)C2CCN(CC(=O)Nc3nccs3)CC2)cc1 | inactive
CCOC(=O)c1[nH]c2cc3c(cc2c1NC(=O)CN1CC(C)CC(C)C1)OCO3 (centres undefined) | inconclusive: 20 µM [inhibitor, full curve]
CCc1ccccc1NC(=O)CN1CCCN(Cc2cc(C)ccc2C)S1(=O)=O | inactive
COC(=O)c1cc(CSc2nnc(NC3CCCCC3)s2)oc1C | inconclusive: 17.8 µM [inhibitor, full curve, poor fit]
CN1C(=O)CSC1=S | inactive
C[C@H](NS(=O)(=O)c1ccc(Cl)cc1)C(=O)OCC(=O)c1ccc[nH]1 | inconclusive: 1.12 µM [inhibitor, full curve, poor fit]
O=C(CSc1cn(CCNC(=O)c2c(F)cccc2F)c2ccccc12)Nc1ccc(F)cc1 | inactive
CCOC(=O)C1=C(C)NC(C)=C(C(=O)OC)C1c1cccc([N+](=O)[O-])c1 (centres undefined) | inconclusive: 0.0398 µM [inhibitor, full curve, poor fit]
COc1ccccc1NS(=O)(=O)c1cccc(C(=O)NCC(c2cccs2)N2CCOCC2)c1 (centres undefined) | inactive
COc1ccccc1N1CCN(C(CNC(=O)C(=O)NCc2ccc(F)cc2)c2cccnc2)CC1 (centres undefined) | inactive

Taken from above.
For Potency, C=CCn1c(=O)/c(=C/c2ccc(Cl)cc2)s/c1=C(/C#N)c1nnc2n1CCCCC2 has the entry inconclusive: 63.1 µM [inhibitor, partial curve, poor fit]
For Potency, COC(=O)c1cc(CSc2nnc(NC3CCCCC3)s2)oc1C has the entry inconclusive: 17.8 µM [inhibitor, full curve, poor fit]
For Potency, COc1ccc(C2=NOC(C(=O)NCc3ccco3)C2)cc1 (centres undefined) has the entry inactive
For Potency, COc1ccccc1N1CCN(C(CNC(=O)C(=O)NCc2ccc(F)cc2)c2cccnc2)CC1 (centres undefined) has the entry inactive
